By UniProt entry, the sequences of proteins in these tests, tags left out. Where a name states a change or a piece, a line headed by the entry shows the natural chain unless it says otherwise.
UniProt P18054: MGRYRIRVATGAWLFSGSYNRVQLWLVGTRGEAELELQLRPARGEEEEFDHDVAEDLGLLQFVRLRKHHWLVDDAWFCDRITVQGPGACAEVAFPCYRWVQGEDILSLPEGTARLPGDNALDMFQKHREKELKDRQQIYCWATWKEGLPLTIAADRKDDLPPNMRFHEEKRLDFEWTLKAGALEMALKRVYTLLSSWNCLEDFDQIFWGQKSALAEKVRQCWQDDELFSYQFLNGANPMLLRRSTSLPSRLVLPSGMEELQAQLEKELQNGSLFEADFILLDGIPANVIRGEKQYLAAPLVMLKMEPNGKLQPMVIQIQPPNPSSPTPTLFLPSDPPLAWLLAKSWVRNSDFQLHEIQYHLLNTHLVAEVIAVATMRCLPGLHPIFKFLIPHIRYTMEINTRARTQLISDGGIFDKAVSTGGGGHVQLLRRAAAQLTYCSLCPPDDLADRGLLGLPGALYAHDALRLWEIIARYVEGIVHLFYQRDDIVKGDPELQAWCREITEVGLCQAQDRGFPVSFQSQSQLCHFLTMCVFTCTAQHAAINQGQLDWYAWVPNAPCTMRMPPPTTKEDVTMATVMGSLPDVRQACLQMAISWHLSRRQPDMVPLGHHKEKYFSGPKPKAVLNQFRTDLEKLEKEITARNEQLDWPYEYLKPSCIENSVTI

Where “and” joins values, the source holds several entries; their conditions need not be identical. Identical values can stand only once. Screen size: about 580,000 compounds; about 6,100 (1.1%) were called active. This list was built around the results that the source calls inconclusive (neither active nor inactive); the mix of calls is not that of the screen. The call rests on the fitted dose curve; in most records, active means well fitted inhibition curve with a large enough effect; inconclusive means small, poorly fitted or top-dose-only effect, or another doubt; inactive means no such curve, though single readings can be large or run the other way. Potencies of inconclusive entries are doubtful fits and often do not repeat.
What follows are compounds tested against Polyunsaturated fatty acid lipoxygenase ALOX12 (Homo sapiens) (UniProt P18054) (assay: Primary qHTS assay for inhibitors of human arachidonate 12S-lipoxygenase (ALOX12): Round 2). Conditions: purified 12hLO, xylenol orange hydroperoxide absorbance; activity change, negative = inhibition: at 108 µM (top of the series).
Procedure, shortened: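 Purified human 12hLO at 150 nM in 25 mM Hepes, 0.01% Triton X-100, pH 7.0, preincubated 15 min at room temperature with compound. Reaction started with 40 uM arachidonic acid, 30 min at room temperature. Hydroperoxide measured by Fe-xylenol orange, 573/405 nm absorbance ratio.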
With `CCOC(=O)C1=C(C)c2ccccc2OC1(C(=O)OCC)c1ccccc1` (centres undefined) the Potency was inconclusive: 56.2 µM [inhibitor, partial curve, poor fit].
`OCCCBr` was tested, and the Potency was inconclusive: 23.3 µM [inhibitor, partial curve].
For `CN1CCN(c2ccc(/C=C3\C(=O)NC(=S)N(c4cccc(Br)c4)C3=O)o2)CC1`, the Potency was inconclusive: 44.7 µM [inhibitor, partial curve, poor fit].
For `NC1(c2ccccc2Cl)CCCCC1=O` (centres undefined), the Potency was inconclusive: 31.6 µM [inhibitor, single point].
With `O=C1NC(=O)N(c2ccccc2F)C(=O)/C1=C/c1cn(CC(=O)N2CCOCC2)c2ccccc12` the Potency was inconclusive: 79.4 µM [inhibitor, partial curve, poor fit].
In the case of `COc1ccc(-c2cc([C@H]3CN4CC[C@H]3C[C@@H]4COC(=O)NC(C)C)n(C)n2)cc1`, the Potency is reported as inconclusive: 39.8 µM [inhibitor, full curve, poor fit].
With `O=C(CN1CCCC1)Nc1ccc(Cl)cc1C(=O)c1ccccc1` the Potency was inconclusive: 3.55 µM [inhibitor, full curve, poor fit].
With `Fc1ccc(CN2CCN(Cc3cccc(F)c3)CC2)cc1` the Potency was inconclusive: 0.562 µM [inhibitor, full curve, poor fit].
For `CCOc1ccc(N2C(=O)NC(=O)/C(=C\c3ccccc3[N+](=O)[O-])C2=O)cc1`, the Potency was inconclusive: 126 µM [inhibitor, partial curve, poor fit].
For `CCOc1cc2c(cc1OCC)-n1cccc1C(c1cc(OC)ccc1F)NC2` (centres undefined), the Potency was inconclusive: 89.1 µM [inhibitor, partial curve, poor fit].
With `NC(=NCCC[C@H](N)C(=O)O)N[N+](=O)[O-]` the Potency was inconclusive: 7.08 µM [inhibitor, full curve, poor fit].
In the case of `O[C@H]1[C@H](NCc2ccncc2)[C@H]2CO[C@H](O2)[C@@H]1N1CCOCC1`, the “activity change, negative = inhibition” value is reported as inactive: -22.6% [at 176 µM].
For `COc1ccccc1CC(=O)N1CC2(CCN(C)CC2)c2cc(OC)c(OCc3ccccc3)cc21`, the Potency was inconclusive: 17.8 µM [inhibitor, partial curve, poor fit].
`C=CCOc1ccc(/C=C(\C)[N+](=O)[O-])cc1OC` was tested, and the Potency was inconclusive: 20 µM [inhibitor, partial curve, poor fit].
`C/C(=N\O)c1cn(C)c2ccccc12` was tested, and the “activity change, negative = inhibition” value was inactive: 1.59%.
In the case of `CC(=O)Nc1ccc(S(=O)(=O)N2C[C@@H]3C[C@H](C2)c2c(-c4cccs4)ccc(=O)n2C3)cc1`, the Potency is reported as inconclusive: 39.8 µM [inhibitor, full curve].
In the case of `Cc1c(C(=O)c2cccc3ccccc23)c2cccc3c2n1[C@H](CN1CCOCC1)CO3`, the Potency is reported as inconclusive: 24.3 µM [inhibitor, single point].
In the case of `CN1CC2(c3ccccc3)CN(C)CC(c3ccccc3)(C1)C2=O`, the Potency is reported as inconclusive: 11.2 µM [inhibitor, full curve, poor fit].
With `C=CCN(C)C(=O)[C@H]1CN2CCC1C[C@@H]2Cn1cc(CCO)nn1` (some centres undefined) the “activity change, negative = inhibition” value was inactive: 37.9% [at 176 µM].
`CC(O)CNc1ccc([N+](=O)[O-])c2cccnc12` (centres undefined) was tested, and the “activity change, negative = inhibition” value was inactive: -28.9%.
In the case of `Cc1nn(Cc2ccccc2)c(C)c1C=C1C(=O)NC(=S)NC1=O`, the Potency is reported as inconclusive: 44.7 µM [inhibitor, partial curve, poor fit].
In the case of `O=[N+]([O-])c1ccc(NCCNCCO)c2ncccc12`, the “activity change, negative = inhibition” value is reported as inactive: 13.8%.
In the case of `Cc1cc([N+](=O)[O-])c2ccccc2[n+]1[O-]`, the Potency is reported as inconclusive: 2.51 µM [inhibitor, full curve, poor fit].
With `CCCCn1c(=O)c(C(=O)NCc2ccc(Cl)cc2)c(O)c2ccccc21` the “activity change, negative = inhibition” value was inactive: 0%.
With `Cn1nc2n(c1=O)CCC(NC(=O)c1nn(C)c3ccccc13)CC2` (centres undefined) the “activity change, negative = inhibition” value was inactive: 14.5%.
With `CCOC(=O)c1ccc(NC(=O)c2sc3nc4c(cc3c2N)N2CCC4CC2)cc1` the activity change, negative = inhibition was inconclusive: -32.2% [inhibitor].
`CCOC(=O)CNC(=S)N1CC2C[C@@H](C1)Cn1c2cccc1=O` was tested, and the “activity change, negative = inhibition” value was inactive: 3.81%.
With `Clc1ccc(C(Cl)(Cl)Cl)c(Cl)c1` the Potency was inconclusive: 79.4 µM [inhibitor, partial curve, poor fit].
In the case of `COc1cccc(N2CCN(Cc3ccc(Cl)cc3)CC2)c1`, the Potency is reported as inconclusive: 31.6 µM [inhibitor, partial curve, poor fit].
In the case of `CN1CC[C@@]2(CCCN(C(=O)c3ccncc3)C2)C1`, the Potency is reported as inconclusive: 31.6 µM [inhibitor, single point].
With `COc1cc(C2NCc3ccccc3-n3cccc32)ccc1O` (centres undefined) the Potency was inconclusive: 20 µM [inhibitor, full curve, poor fit].
With `O=C(O)[C@H]1NC[C@H]2C[C@H]21` the Potency was inconclusive: 6.31 µM [inhibitor, full curve, poor fit].
In the case of `CCOC(=O)[C@]12Cc3cc(OC)ccc3[C@H]1N(C)C(=O)c1cc(OC)ccc12`, the Potency is reported as inconclusive: 12.6 µM [inhibitor, partial curve, poor fit].
`CC(C)CC(=O)N1CC[C@@H]2COCCN(C)[C@@H]2C1` was tested, and the “activity change, negative = inhibition” value was inactive: 72.3%.
With `Cc1ncc2c(n1)C[C@@H]1CC[C@H]2N1C(=O)Nc1ccc(C)c(C)c1` the “activity change, negative = inhibition” value was inactive: 8.36%.
With `COCCCN1CCN(c2nnc3n2-c2sc(Br)cc2C(c2ccccc2Cl)=NC3)CC1` the “activity change, negative = inhibition” value was inactive: -23.6%.
For `CCOC(=O)C1=C(NC(=S)NC(=O)c2ccccc2)c2ccccc2CC12CCCC2`, the Potency was active: 20 µM.
With `Cc1ccc(-n2c(O)c(/C=N/Nc3ccccc3)c(=O)[nH]c2=O)cc1C` the Potency was inconclusive: 6.31 µM [inhibitor, partial curve, poor fit].
`O=C1NCN(c2ccccc2)C12CCN(C(c1cccc3ccccc13)c1nnnn1C1CCCC1)CC2` (centres undefined) was tested, and the Potency was inconclusive: 158 µM [inhibitor, single point].
With `Cc1cc(C)cc(N2C(=O)/C(=C\c3ccc(N4CCN(C)CC4)o3)C(=O)NC2=S)c1` the Potency was inconclusive: 2.24 µM [inhibitor, full curve, poor fit].
For `CN(C)[C@@H]1C(=O)C(C(N)=O)=C(O)[C@@]2(O)C(=O)C3=C(O)c4c(O)ccc(Cl)c4[C@@](C)(O)[C@H]3C[C@@H]12`, the Potency was “inactive and inconclusive: 3.98 µM [inhibitor, full curve, poor fit]”.
For `O=C1NC(=O)C(=Cc2ccc(-c3cc(Cl)ccc3[N+](=O)[O-])o2)C(=O)N1`, the Potency was active: 6.31 µM.
With `CC[C@@]1(O)C(=O)OCc2c1cc1n(c2=O)Cc2cc3ccccc3nc2-1` the Potency was inconclusive: 28.2 µM [inhibitor, single point] and inconclusive: 19.3 µM [inhibitor, partial curve, poor fit].
In the case of `COc1cccc(C(c2nnnn2-c2c(C)cccc2C)N2CCC(n3c(=O)[nH]c4ccccc43)CC2)c1OC` (centres undefined), the Potency is reported as inconclusive: 44.7 µM [inhibitor, partial curve, poor fit].
`CCN(CC)C(=O)c1ccc(N(Cc2ccccc2)S(C)(=O)=O)cc1` was tested, and the Potency was inconclusive: 112 µM [inhibitor, partial curve, poor fit].
In the case of `O=C(CSC1c2ccccc2Sc2ccccc21)Nc1ccc(C(=O)O)cc1`, the Potency is reported as inconclusive: 126 µM [inhibitor, partial curve, poor fit].
With `CN(C)c1ccc(-c2ccc(N(C)C)cc2)cc1` the Potency was inconclusive: 79.4 µM [inhibitor, partial curve, poor fit].
With `Cn1cccc1/C=C1\C(=O)NC(=O)N(Cc2ccccc2Cl)C1=O` the Potency was inconclusive: 44.7 µM [inhibitor, partial curve, poor fit].
With `O=C(c1ccco1)N1CCC[C@@]2(CCN(Cc3ccncc3)C2)C1` the Potency was inconclusive: 31.6 µM [inhibitor, single point].
For `O=P(Nc1cccc(F)c1)(Oc1ccccc1F)Oc1ccccc1F`, the Potency was inconclusive: 126 µM [inhibitor, single point].
For `O=C/C=C/c1ccccc1`, the “activity change, negative = inhibition” value was inactive: 0.516%.
With `CCCn1c(C)c(C(=O)OCc2ccccc2)c2cc(O)ccc21` the Potency was active: 35.5 µM.
`CCN(CC)Cc1c[nH]c2ccccc12` was tested, and the Potency was inconclusive: 10 µM [inhibitor, partial curve, poor fit].
With `CC(C)CCN1CCC(N2CCN(C(=O)COc3ccccc3)CC2)C1=O` (centres undefined) the “activity change, negative = inhibition” value was inactive: 40.4%.
In the case of `CC(=O)c1ccc(NC(=O)NC[C@H]2C[C@@H]3CCN2C[C@@H]3CN2CCC(C)CC2)cc1`, the “activity change, negative = inhibition” value is reported as inactive: 13.4% [at 176 µM].
`CC(=O)OC1(C)CC(C)C(=O)C(C(O)CC2CC(=O)NC(=O)C2)C1` (centres undefined) was tested, and the “activity change, negative = inhibition” value was inactive: 39.4%.
In the case of `O=C1NC(=O)N(c2ccc(Cl)cc2)C(=O)/C1=C\c1ccc(Sc2nc3ccccc3[nH]2)o1`, the Potency is reported as active: 8.91 µM.
`Cc1c(C(=O)O)cccc1-n1c(C)cc(/C=C2\C(=O)NC(=O)N(c3ccc4c(c3)OCO4)C2=O)c1C` was tested, and the Potency was inconclusive: 20 µM [inhibitor, partial curve, poor fit].
In the case of `O=C(Cc1ccccc1)OCCN1CCCCC1`, the Potency is reported as inconclusive: 3.98 µM [inhibitor, full curve, poor fit].
`Cc1cccc(CC(=O)N2CCN(Cc3ccc(=O)n(C)c3)CC2)c1` was tested, and the “activity change, negative = inhibition” value was inactive: 29.8%.
For `COc1ccc2[nH]cc(CCNCc3ccc(Br)cc3)c2c1`, the Potency was inconclusive: 5.01 µM [inhibitor, full curve, poor fit].
With `CN1CCC(N(C)c2ncnc3scc(-c4ccc(Br)cc4)c23)CC1` the Potency was inconclusive: 8.91 µM [inhibitor, partial curve, poor fit].
In the case of `CN1CCN(c2ccc([N+](=O)[O-])c3no[n+]([O-])c23)CC1`, the Potency is reported as inconclusive: 112 µM [inhibitor, single point].
In the case of `O=C(N/N=C/c1c(O)n(Cc2ccco2)c(=O)[nH]c1=O)c1ccccc1O`, the Potency is reported as inconclusive: 63.1 µM [inhibitor, partial curve, poor fit].
On the % scale 0 is the no-effect control and ±100 the full control effect; potency means the concentration at half of the fitted maximal effect.
